This is one part of the list. Baselines shift from plate to plate; read single values as rough.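 Hits were defined as a z-score below −3.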
Target: T1, YTHDF1 YTH domain (aa 365-554) (UniProt Q9BYJ9)
T1 sequence (whole entry): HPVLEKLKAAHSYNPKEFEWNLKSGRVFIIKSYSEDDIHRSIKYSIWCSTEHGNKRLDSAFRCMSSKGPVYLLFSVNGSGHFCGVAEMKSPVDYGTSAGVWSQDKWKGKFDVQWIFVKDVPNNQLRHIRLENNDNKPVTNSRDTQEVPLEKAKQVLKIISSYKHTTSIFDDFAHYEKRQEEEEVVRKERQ
Experiment: tryptophan fluorescence intensity z-score (mean); higher = higher fluorescence, less quenching (negative = binding / quenching)
Details: 10 µM

Tryptophan fluorescence intensity z-score, inactive:
COc1c(O)cc2c(c1O)[C@@H]1O[C@H](CO)[C@@H](O)[C@H](O)[C@H]1OC2=O (plate: M 17-18) 0.0148
COC(=O)/C(=C1/OC(=O)C(c2ccccc2)=C1O)c1ccccc1 (plate: M 17-18) -0.222
CC(C)[C@H]1CC[C@H](C(=O)N[C@H](Cc2ccccc2)C(=O)O)CC1 (plate: M 9-10) -0.264
COc1ccc(C(C)=O)c(O)c1 (plate: M 21-22) -0.0188
COC(=O)[C@@H]1OC(=O)C2OC23[C@@]1(C)CCC1[C@]2(C)C(C[C@@H](O)[C@]13C)C(C)(C)[C@H](OC(C)=O)C[C@@H]2OC(C)=O (stereo partly specified) (plate: M 15-16) 0.538
CCCCOc1ccc(OCCCN2CCOCC2)cc1 (plate: M 7-8) 0.296
CC1CCc2cc(F)cc3c(=O)c(C(=O)O)cn1c23 (stereo unspecified) (plate: M 7-8) 0.311
COc1cc2c(cc1OC)-c1c(oc3cc(O)cc(O)c3c1=O)CO2 (plate: M 17-18) 0.315
CC(=O)O[C@H]1CC[C@]2(C)[C@H]3CC=C4[C@@H]5CC(C)(C)CC[C@]5(C(=O)O)CC[C@@]4(C)[C@]3(C)CC[C@H]2C1(C)C (plate: M 15-16) 0.897
CC(C)[C@@H]1CC[C@@H](C)C[C@H]1OC(=O)c1ccccc1 (plate: M 21-22) 0.363
S=P(N1CC1)(N1CC1)N1CC1 (plate: M 9-10) -0.0103
Cc1cc(O)cc(=O)o1 (plate: M 21-22) -0.0285
COc1ccc2c(c1)OCC(Cc1ccc(OC)c(OC)c1)C2=O (stereo unspecified) (plate: M 15-16) -0.32
CC[C@]12CCCN3CCc4c(n(c5ccccc45)[C@@](O)(C(=O)OC)C1)[C@@H]32 (plate: M 17-18) 0.187
COc1ccc([C@H]2Oc3cc(OC)cc(OC)c3C[C@H]2O)cc1 (plate: M 15-16) 0.399
O=C(O)/C=C/c1ccccc1 (plate: M 21-22) 0.251
Nc1ccc(S(N)(=O)=O)cc1 (plate: M 5-6) 0.995
Nc1ncnc2c1ncn2[C@H]1C[C@H](O)[C@@H](CO)O1 (plate: M 19-20) 0.528
CCOc1nc2cccc(C(=O)OC(C)OC(=O)OC3CCCCC3)c2n1Cc1ccc(-c2ccccc2-c2nn[nH]n2)cc1 (stereo unspecified) (plate: M 9-10) -0.771
CC1=CCCC(C)=CCC(C)(C)C=CC1 [HUMULENE(alpha)] (plate: M 17-18) 0.0752
OC[C@H]1O[C@@H](O[C@H]2[C@H](O)[C@@H](O)[C@@H](O)O[C@@H]2CO)[C@H](O)[C@@H](O)[C@@H]1O (plate: M 19-20) 0.809
CC1=C(C(=O)O)N2C(=O)[C@@H](NC(=O)[C@H](N)c3ccc(O)cc3)[C@H]2SC1 (plate: M 1-2) 0.877
NC(=O)C1(N2CCCCC2)CCN(CCCC(=O)c2ccc(F)cc2)CC1 (plate: M 11-12) -0.801
CNC1(C)C2CCC(C2)C1(C)C (stereo unspecified) (plate: M 3-4) 0.0356
CCCCCCCCCCCCCCCC[N+](C)(C)C (plate: M 7-8) -0.43
CCCc1nc(C(C)(C)O)c(C(=O)OCc2oc(=O)oc2C)n1Cc1ccc(-c2ccccc2-c2nnn[nH]2)cc1 (plate: M 9-10) -0.233
Cn1c(=O)c2c(ncn2CC(O)CO)n(C)c1=O (stereo unspecified) (plate: M 3-4) -0.171
NC(=O)c1cccnc1 (plate: M 11-12) 0.251
C[C@@H]1CC2C3C[C@H](F)C4=CC(=O)C=C[C@]4(C)[C@@]3(F)[C@@H](O)C[C@]2(C)[C@@]1(O)C(=O)COC(=O)C(C)(C)C (stereo partly specified) (plate: M 3-4) -0.388
C=C(NC(=O)C(=C)NC(=O)c1csc(C2=N[C@@H]3c4csc(n4)[C@H]4NC(=O)c5csc(n5)[C@H]([C@](C)(O)[C@@H](C)O)NC(=O)[C@H]5CSC(=N5)/C(=C/C)NC(=O)[C@H]([C@@H](C)O)NC(=O)c5csc(n5)[C@]3(CC2)NC(=O)[C@H](C)NC(=O)C(=C)NC(=O)[C@H](C)NC(=O)[C@H]([C@@H](C)CC)N[C@@H]2C=Cc3c([C@H](C)O)cc(nc3[C@H]2O)C(=O)O[C@@H]4C)n1)C(N)=O (plate: M 9-10) -0.997
CN1CCC[C@H]1c1cccnc1 (plate: M 13-14) 0.299
CCCC(C(=O)OCCN(CC)CC)(c1ccccc1)c1ccccc1 (plate: M 7-8) -0.192
COc1c(OC)c2occc2c2oc(=O)ccc12 (plate: M 17-18) -0.316
CC(C)=CCC/C(C)=C/COc1ccc2ccc(=O)oc2c1 (plate: M 19-20) -0.139
Clc1ccc(COC(Cn2ccnc2)c2ccc(Cl)cc2Cl)cc1 (stereo unspecified) (plate: M 7-8) -0.509
NC(=O)NO (plate: M 3-4) 0.112
Clc1ccccc1C(c1ccccc1)(c1ccccc1)n1ccnc1 (plate: M 1-2) 0.237
CO/N=C1\CN(c2nc3c(cc2F)c(=O)c(C(=O)O)cn3C2CC2)CC1CN (stereo unspecified) (plate: M 11-12) 0.273
CCCCC(CC)COC(=O)c1ccccc1O (stereo unspecified) (plate: M 13-14) 0.205
C=C1CC=C(C)CC[C@@H]2[C@@H]1CC2(C)C (plate: M 17-18) 0.459
CCN(CCCc1ccccc1)CCCc1ccccc1 (plate: M 1-2) 0.265
CC(=O)[C@H]1CC[C@H]2[C@@H]3CC=C4C[C@@H](OC(=O)CCC(=O)O)CC[C@]4(C)[C@H]3CC[C@]12C (plate: M 11-12) 0.133
C[C@H]1CC[C@@H](C(C)(C)O)CC2=C1CC[C@@H]2C (plate: M 21-22) 0.241
CC[C@]1(O)C[C@@H]2CN(CCc3c([nH]c4ccccc34)[C@@](C(=O)OC)(c3cc4c(cc3OC)N(C)[C@H]3[C@@](O)(C(=O)OC)[C@H](OC(C)=O)[C@]5(CC)C=CCN6CC[C@]43[C@@H]65)C2)C1 (plate: M 5-6) -0.73
O=C(O)c1cc(O)c(O)c(O)c1 (plate: M 1-2) 0.258
CCN(CC)C(=O)N1CCN(C)CC1 (plate: M 1-2) 0.0567
O=P(O)(O)C(O)(Cc1cccnc1)P(=O)(O)O (plate: M 11-12) -0.458
O=C(O)/C=C/C=C/c1ccc2c(c1)OCO2 (plate: M 21-22) 0.64
CC(C)CCC[C@@H](C)[C@H]1CC[C@H]2[C@@H]3CC=C4C[C@@H](O)CC[C@]4(C)[C@H]3CC[C@]12C (plate: M 5-6) -0.139
CCCCCC1C(=O)CCC1CC(=O)O (stereo unspecified) (plate: M 21-22) 0.16
CN(C)CCC(c1ccccc1)c1ccccn1 (stereo unspecified) (plate: M 3-4) -0.319
C=CC(C1=CC(=O)C(OC)=CC1=O)c1ccc(O)cc1 (stereo unspecified) (plate: M 15-16) -0.695
O=C(O)c1cc(=O)c2c(OCC(O)COc3cccc4oc(C(=O)O)cc(=O)c34)cccc2o1 (plate: M 1-2) 0.411
Nc1nc(=O)c2c([nH]1)NCC(CNc1ccc(C(=O)N[C@@H](CCC(=O)O)C(=O)O)cc1)N2C=O (stereo partly specified) (plate: M 3-4) 0.0628
NC[C@H]1O[C@H](O[C@H]2[C@@H](O[C@@H]3O[C@H](CO)[C@@H](O)[C@H]3O)[C@@H](O)[C@H](N)C[C@@H]2N)[C@H](N)[C@@H](O)[C@@H]1O (plate: M 19-20) 0.572
CCCCOc1ccc(CC(=O)NO)cc1 (plate: M 23-24) 0.308
CC(=O)OC(C)C[N+](C)(C)C (stereo unspecified) (plate: M 3-4) -0.473
C=CCc1ccccc1OCC(O)CNC(C)C (stereo unspecified) (plate: M 13-14) 0.566
NC[C@H]1CC[C@H](C(=O)O)CC1 (plate: M 7-8) -0.129
Oc1c(Cl)cc(Cl)cc1Sc1cc(Cl)cc(Cl)c1O (plate: M 1-2) -0.133
Cc1ccc(O)c([C@H](CCN(C(C)C)C(C)C)c2ccccc2)c1 (plate: M 9-10) -0.2
CCCCC[C@H](CC(=O)NO)C(=O)N[C@H](C(=O)N1CCC[C@H]1CO)C(C)C (plate: M 15-16) 0.609
CC(=O)OCC(=O)[C@@]1(O)CC[C@H]2[C@@H]3CCC4=CC(=O)C=C[C@]4(C)[C@H]3[C@@H](O)C[C@@]21C (plate: M 5-6) 0.0105
C[C@]12CCC(=O)C=C1CC[C@@H]1[C@@H]2[C@@H](O)C[C@@]2(C)[C@H]1CC[C@]2(O)C(=O)COP(=O)(O)O (plate: M 3-4) -0.446
C/C=C(\C)C(=O)O[C@@H]1c2c(ccc3ccc(=O)oc23)OC(C)(C)[C@@H]1OC(C)=O (plate: M 19-20) 0.106
CC(C)CCC[C@@H](C)[C@H]1CC[C@H]2[C@@H]3C[C@@H](O)[C@@]4(O)C[C@@H](O)CC[C@]4(C)[C@H]3CC[C@]12C [CHOLESTAN-3beta,5alpha,6beta-TRIOL] (plate: M 15-16) 0.46

3 records picked at random from the list so far, as already listed:
Tryptophan fluorescence intensity z-score, inactive:
COc1cc2c(cc1OC)-c1c(oc3cc(O)cc(O)c3c1=O)CO2 (plate: M 17-18) 0.315
Nc1ncnc2c1ncn2[C@H]1C[C@H](O)[C@@H](CO)O1 (plate: M 19-20) 0.528
CC(C)[C@@H]1CC[C@@H](C)C[C@H]1OC(=O)c1ccccc1 (plate: M 21-22) 0.363

From the supplement of paper PMC9578143, “Small-Molecule Ebselen Binds to YTHDF Proteins Interfering with the Recognition of N^6-Methyladenosine-Modified RNAs” (ACS Pharmacology & Translational Science, 2022)
